Results from the supplement of paper PMC8728848.
Some of the results follow.

Experiments:
Test in all cases: glycan array binding signal (z-score within array); higher = stronger binding
Conditions in all cases: glycan notation: IUPAC condensed, linker removed
GalNAc(b1-3)GalNAc = biological target: GalNAc(b1-3)GalNAc
In short: (§1)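 The binding signal is a Z-score computed within each array. Data were drawn from 3228 arrays in the Consortium for Functional Glycomics database, restricted to those with a known protein sequence. Scores were averaged over arrays of the same protein sequence at different concentrations or buffers, and over linkers, and negative values can be taken as non-binding.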

GalNAc(b1-4)GlcNAc = biological target: GalNAc(b1-4)GlcNAc
In short: as §1

[1] = biological target: GalNAc(b1-4)GlcNAc(b1-2)Man(a1-3)[GalNAc(b1-4)GlcNAc(b1-2)Man(a1-6)]Man(b1-4)GlcNAc(b1-4)GlcNAc
In short: as §1

GalNAc(b1-6)GalNAc = biological target: GalNAc(b1-6)GalNAc
In short: as §1

Glc(a1-4)Glc = biological target: Glc(a1-4)Glc
In short: as §1

Glc(a1-6)Glc(a1-6)Glc = biological target: Glc(a1-6)Glc(a1-6)Glc
In short: as §1

Glc(b1-4)Glc = biological target: Glc(b1-4)Glc
In short: as §1

Glc(b1-6)Glc = biological target: Glc(b1-6)Glc
In short: as §1

GlcA(b1-3)Gal = biological target: GlcA(b1-3)Gal
In short: as §1

GlcA(b1-3)GlcNAc = biological target: GlcA(b1-3)GlcNAc
In short: as §1

GlcA(b1-6)Gal = biological target: GlcA(b1-6)Gal
In short: as §1

[2] = biological target: GlcNAc(a1-3)Gal(b1-4)GlcNAc
In short: as §1

[3] = biological target: GlcNAc(a1-4)Gal(b1-3)GlcNAc
In short: as §1

[4] = biological target: GlcNAc(a1-4)Gal(b1-4)GalNAc
In short: as §1

[5] = biological target: GlcNAc(a1-4)Gal(b1-4)GlcNAc
In short: as §1

[6] = biological target: GlcNAc(a1-4)Gal(b1-4)GlcNAc(b1-3)Gal(b1-4)Glc
In short: as §1

[7] = biological target: GlcNAc(a1-4)Gal(b1-4)GlcNAc(b1-3)Gal(b1-4)GlcNAc
In short: as §1

[8] = biological target: GlcNAc(a1-4)Gal(b1-4)GlcNAc(b1-3)Gal(b1-4)GlcNAc(b1-3)Gal(b1-4)GlcNAc
In short: as §1

[9] = biological target: GlcNAc(a1-4)Gal(b1-4)GlcNAc(b1-3)Gal(b1-4)[Fuc(a1-3)]GlcNAc(b1-3)Gal(b1-4)[Fuc(a1-3)]GlcNAc
In short: as §1

[10] = biological target: GlcNAc(a1-6)Gal(b1-4)GlcNAc
In short: as §1

[11] = biological target: GlcNAc(b1-2)Gal(b1-3)GalNAc
In short: as §1

[12] = biological target: GlcNAc(b1-2)Man(a1-3)[GlcNAc(b1-2)Man(a1-6)]Man(b1-4)GlcNAc(b1-4)GlcNAc
In short: as §1

[13] = biological target: GlcNAc(b1-2)Man(a1-3)[GlcNAc(b1-2)Man(a1-6)]Man(b1-4)GlcNAc(b1-4)[Fuc(a1-6)]GlcNAc
In short: as §1

[14] = biological target: GlcNAc(b1-2)Man(a1-3)[GlcNAc(b1-4)][GlcNAc(b1-2)Man(a1-6)]Man(b1-4)GlcNAc(b1-4)GlcNAc
In short: as §1

[15] = biological target: GlcNAc(b1-2)[GlcNAc(b1-4)]Man(a1-3)[GlcNAc(b1-2)Man(a1-6)]Man(b1-4)GlcNAc(b1-4)GlcNAc
In short: as §1

[16] = biological target: GlcNAc(b1-2)[GlcNAc(b1-4)]Man(a1-3)[GlcNAc(b1-4)][GlcNAc(b1-2)Man(a1-6)]Man(b1-4)GlcNAc(b1-4)GlcNAc
In short: as §1

[17] = biological target: GlcNAc(b1-2)[GlcNAc(b1-4)]Man(a1-3)[GlcNAc(b1-4)][GlcNAc(b1-2)[GlcNAc(b1-6)]Man(a1-6)]Man(b1-4)GlcNAc(b1-4)GlcNAc
In short: as §1

[18] = biological target: GlcNAc(b1-2)[GlcNAc(b1-6)]Man(a1-6)[GlcNAc(b1-2)Man(a1-3)]Man(b1-4)GlcNAc(b1-4)GlcNAc
In short: as §1

[19] = biological target: GlcNAc(b1-2)[GlcNAc(b1-6)]Man(a1-6)[GlcNAc(b1-2)Man(a1-3)][GlcNAc(b1-4)]Man(b1-4)GlcNAc(b1-4)GlcNAc
In short: as §1

GlcNAc(b1-3)Gal = biological target: GlcNAc(b1-3)Gal
In short: as §1

[20] = biological target: GlcNAc(b1-3)Gal(b1-3)GalNAc
In short: as §1

GlcNAc(b1-3)Gal(b1-4)Glc = biological target: GlcNAc(b1-3)Gal(b1-4)Glc
In short: as §1

[21] = biological target: GlcNAc(b1-3)Gal(b1-4)GlcNAc
In short: as §1

[22] = biological target: GlcNAc(b1-3)Gal(b1-4)GlcNAc(b1-3)Gal(b1-4)GlcNAc
In short: as §1

GlcNAc(b1-3)GalNAc = biological target: GlcNAc(b1-3)GalNAc
In short: as §1

GlcNAc(b1-3)Man = biological target: GlcNAc(b1-3)Man
In short: as §1

[23] = biological target: GlcNAc(b1-3)[GlcNAc(b1-4)][GlcNAc(b1-6)]GlcNAc
In short: as §1

[24] = biological target: GlcNAc(b1-3)[GlcNAc(b1-6)]Gal(b1-4)GlcNAc
In short: as §1

[25] = biological target: GlcNAc(b1-3)[GlcNAc(b1-6)]GalNAc
In short: as §1

[26] = biological target: GlcNAc(b1-4)Gal(b1-4)GlcNAc
In short: as §1

GlcNAc(b1-4)GlcNAc = biological target: GlcNAc(b1-4)GlcNAc
In short: as §1

[27] = biological target: GlcNAc(b1-4)GlcNAc(b1-4)GlcNAc
In short: as §1

[28] = biological target: GlcNAc(b1-4)GlcNAc(b1-4)GlcNAc(b1-4)GlcNAc(b1-4)GlcNAc
In short: as §1

[29] = biological target: GlcNAc(b1-4)GlcNAc(b1-4)GlcNAc(b1-4)GlcNAc(b1-4)GlcNAc(b1-4)GlcNAc
In short: as §1

[30] = biological target: GlcNAc(b1-4)[GlcNAc(b1-6)]GalNAc
In short: as §1

B1: pullulanase (Streptococcus pyogenes), Q8KLP1 (protein)
chain: MKKKVNQGSKRYQYLLKKWGIGFVIAATGTVMLGCIPSILTHQVAAKTIVGLARDEAQQGDGNAKSGDGFQSSSKEAKPVLDSSSANPASIAEHHLRMHFKTLPAGESLGSLGLWVWGDVDQPSKDWPNGAITMTKAKKDDYGYYLDVPLAAKHRQQVSYLINNKAGENLSKDQHIPLLTPKMNEVWIDENYHAHAYRPLKKGYLRINYHNQSGHYDNLAVWTFKDVKTPTTDWPNGLDLSHKGPYGAYVDVPLKEGANEIGFLILDKSKTGDAIKVQPKDYLFKELDNHTQVFVKDTDPKVYNNPYYIDQVSLKGAEQTTPNEIKAIFTTLDGLDEDAVKQNIKITDKAGKTVAIDELTLDKDKSVMTLKGDFKAQGAVYTVTFGEVSQVARQSWQLKDKLYAYDGELGATLAKDGSVDLALWSPSADSVKVVVYDKQDQTKVVGQADLTKSDKGVWRAHLTSDSVKGISDYTGYYYLYEITRGQEKVMVLDPYAKSLAAWNDATATDDIKTAKAAFIDPSKLGPTGLDFAKINNFKKREDAIIYEAHVRDFTSDKALEGKLTHPFGTFSAFVEQLDYLKDLGVTHVQLLPVLSYFYANELDKTRSTAYTSSDNNYNWGYDPQHYFALSGMYSANPNDPALRIAELKNLVNEIHKRGMGVIFDVVYNHTARTYLFEDLEPNYYHFMNADGTARESFGGGRLGTTHAMSRRILVDSITYLTREFKVDGFRFDMMGDHDAAAIEQAFKAAKAINPNTIMIGEGWRTYQGDEGKKEIAADQDWMKATNTVGVFSDDIRNTLKSGFPNEGTAAFITGGAKNLEGLFKTIKAQPSNFEADAPGDVVQYIAAHDNLTLHDVIAKSINKDPKVAEEEIHKRIRLGNTMILTAQGTAFIHSGQEYGRTKQLLNPDYKTKVSDDKVPNKATLIDAVAQYPYFIHDSYDSSDAVNHFDWAKATDSIAHPISNQTKAYTQGLIALRRSTDAFTKATKAEVDRDVTLITQAGQDGIQQEDLIMGYQTVASNGDRYAVFVNADNKTRKVVLPQAYRYLLGAQVLADAEQVGVTAIAKPKGVQFTKEGLTIDGLTALVLKVSSKTANPSQQKSQTDNHQTKTPDGSKDLDKSLMTRPKRAKTNQKLPKTGEAPSKGLLAAGVALLLLAISLLMKRQKD
glycan array binding signal (z-score) (GalNAc(b1-3)GalNAc): -0.967
glycan array binding signal (z-score) (GalNAc(b1-4)GlcNAc): -0.76
glycan array binding signal (z-score) [1]: 1.1
glycan array binding signal (z-score) (GalNAc(b1-6)GalNAc): -0.145
glycan array binding signal (z-score) (Glc(a1-4)Glc): -0.166
glycan array binding signal (z-score) (Glc(a1-6)Glc(a1-6)Glc): 2.49
glycan array binding signal (z-score) (Glc(b1-4)Glc): -0.054
glycan array binding signal (z-score) (Glc(b1-6)Glc): 1.29
glycan array binding signal (z-score) (GlcA(b1-3)Gal): -0.708
glycan array binding signal (z-score) (GlcA(b1-3)GlcNAc): 2.61
glycan array binding signal (z-score) (GlcA(b1-6)Gal): 1.32
glycan array binding signal (z-score) [2]: -0.526
glycan array binding signal (z-score) [3]: 0.217
glycan array binding signal (z-score) [4]: -1.56
glycan array binding signal (z-score) [5]: -0.735
glycan array binding signal (z-score) [6]: 0.345
glycan array binding signal (z-score) [7]: -0.11
glycan array binding signal (z-score) [8]: 0.594
glycan array binding signal (z-score) [9]: 2.15
glycan array binding signal (z-score) [10]: 1.72
glycan array binding signal (z-score) [11]: -1.26
glycan array binding signal (z-score) [12]: -0.014
glycan array binding signal (z-score) [13]: 1.71
glycan array binding signal (z-score) [14]: 0.33
glycan array binding signal (z-score) [15]: -0.784
glycan array binding signal (z-score) [16]: -0.733
glycan array binding signal (z-score) [17]: 1.59
glycan array binding signal (z-score) [18]: -0.795
glycan array binding signal (z-score) [19]: -0.549
glycan array binding signal (z-score) (GlcNAc(b1-3)Gal): 1.89
glycan array binding signal (z-score) [20]: -0.328
glycan array binding signal (z-score) (GlcNAc(b1-3)Gal(b1-4)Glc): -0.26
glycan array binding signal (z-score) [21]: -0.767
glycan array binding signal (z-score) [22]: -1.14
glycan array binding signal (z-score) (GlcNAc(b1-3)GalNAc): 0.154
glycan array binding signal (z-score) (GlcNAc(b1-3)Man): 0.318
glycan array binding signal (z-score) [23]: -0.834
glycan array binding signal (z-score) [24]: -0.147
glycan array binding signal (z-score) [25]: 0.545
glycan array binding signal (z-score) [26]: 0.614
glycan array binding signal (z-score) (GlcNAc(b1-4)GlcNAc): 0.664
glycan array binding signal (z-score) [27]: -1.18
glycan array binding signal (z-score) [28]: 0.317
glycan array binding signal (z-score) [29]: -0.949
glycan array binding signal (z-score) [30]: 0.817
